Holding throughout (assay): proximity labelling
Experiment [1] concerns the target T1, EXD2-iso2-BirA*-FLAG (human) (UniProt Q9NVH0).
T1 sequence: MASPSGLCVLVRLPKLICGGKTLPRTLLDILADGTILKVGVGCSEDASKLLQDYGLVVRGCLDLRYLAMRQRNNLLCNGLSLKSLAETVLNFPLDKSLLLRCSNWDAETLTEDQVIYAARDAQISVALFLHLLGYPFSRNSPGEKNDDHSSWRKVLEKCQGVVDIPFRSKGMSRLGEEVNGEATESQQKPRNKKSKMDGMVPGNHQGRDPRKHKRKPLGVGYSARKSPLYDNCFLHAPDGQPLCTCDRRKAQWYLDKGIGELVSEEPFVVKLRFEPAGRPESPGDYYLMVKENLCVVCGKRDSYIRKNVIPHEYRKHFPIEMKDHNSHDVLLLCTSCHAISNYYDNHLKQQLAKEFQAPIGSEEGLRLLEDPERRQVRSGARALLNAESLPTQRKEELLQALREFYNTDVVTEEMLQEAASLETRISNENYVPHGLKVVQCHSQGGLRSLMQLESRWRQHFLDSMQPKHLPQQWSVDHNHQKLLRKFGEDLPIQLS

By UniProt entry, the sequences of proteins in these tests, tags left out. Where a name states a change or a piece, a line headed by the entry shows the natural chain unless it says otherwise. Residues count along the entry.
UniProt Q9NR28: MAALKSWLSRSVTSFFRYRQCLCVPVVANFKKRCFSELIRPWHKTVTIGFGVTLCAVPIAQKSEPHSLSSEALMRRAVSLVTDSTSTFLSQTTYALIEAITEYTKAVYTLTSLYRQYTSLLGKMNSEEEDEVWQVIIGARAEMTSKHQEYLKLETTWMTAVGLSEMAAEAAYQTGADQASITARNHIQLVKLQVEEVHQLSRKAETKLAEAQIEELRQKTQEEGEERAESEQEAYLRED
UniProt Q14318: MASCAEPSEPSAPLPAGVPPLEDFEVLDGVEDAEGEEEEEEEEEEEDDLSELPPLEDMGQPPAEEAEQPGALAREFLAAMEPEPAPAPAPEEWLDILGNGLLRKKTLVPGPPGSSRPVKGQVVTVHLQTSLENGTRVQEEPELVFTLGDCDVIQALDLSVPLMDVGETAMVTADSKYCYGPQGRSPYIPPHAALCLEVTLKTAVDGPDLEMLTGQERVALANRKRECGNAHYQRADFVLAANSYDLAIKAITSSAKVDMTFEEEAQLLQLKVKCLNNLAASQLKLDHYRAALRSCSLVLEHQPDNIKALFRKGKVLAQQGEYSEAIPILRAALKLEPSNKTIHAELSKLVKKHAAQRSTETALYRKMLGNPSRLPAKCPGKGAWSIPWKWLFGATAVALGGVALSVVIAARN
UniProt Q8IXI1: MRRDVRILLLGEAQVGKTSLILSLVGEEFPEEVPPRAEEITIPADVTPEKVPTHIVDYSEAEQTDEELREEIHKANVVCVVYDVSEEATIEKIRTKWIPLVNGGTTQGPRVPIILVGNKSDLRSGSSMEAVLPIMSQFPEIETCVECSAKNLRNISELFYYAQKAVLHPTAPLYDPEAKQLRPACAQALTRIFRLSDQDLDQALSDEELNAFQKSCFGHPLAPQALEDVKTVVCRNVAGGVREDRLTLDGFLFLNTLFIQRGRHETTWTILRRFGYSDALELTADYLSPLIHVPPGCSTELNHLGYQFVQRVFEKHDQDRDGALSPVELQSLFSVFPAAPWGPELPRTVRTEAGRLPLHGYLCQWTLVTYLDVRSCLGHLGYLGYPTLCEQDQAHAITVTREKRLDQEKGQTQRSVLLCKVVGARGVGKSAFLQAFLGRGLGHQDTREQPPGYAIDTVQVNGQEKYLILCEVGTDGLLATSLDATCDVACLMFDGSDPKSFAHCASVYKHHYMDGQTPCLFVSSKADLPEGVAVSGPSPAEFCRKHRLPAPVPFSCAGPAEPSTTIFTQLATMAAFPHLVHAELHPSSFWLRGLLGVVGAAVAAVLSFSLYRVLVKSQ
UniProt Q9Y4W6, residues 67-797: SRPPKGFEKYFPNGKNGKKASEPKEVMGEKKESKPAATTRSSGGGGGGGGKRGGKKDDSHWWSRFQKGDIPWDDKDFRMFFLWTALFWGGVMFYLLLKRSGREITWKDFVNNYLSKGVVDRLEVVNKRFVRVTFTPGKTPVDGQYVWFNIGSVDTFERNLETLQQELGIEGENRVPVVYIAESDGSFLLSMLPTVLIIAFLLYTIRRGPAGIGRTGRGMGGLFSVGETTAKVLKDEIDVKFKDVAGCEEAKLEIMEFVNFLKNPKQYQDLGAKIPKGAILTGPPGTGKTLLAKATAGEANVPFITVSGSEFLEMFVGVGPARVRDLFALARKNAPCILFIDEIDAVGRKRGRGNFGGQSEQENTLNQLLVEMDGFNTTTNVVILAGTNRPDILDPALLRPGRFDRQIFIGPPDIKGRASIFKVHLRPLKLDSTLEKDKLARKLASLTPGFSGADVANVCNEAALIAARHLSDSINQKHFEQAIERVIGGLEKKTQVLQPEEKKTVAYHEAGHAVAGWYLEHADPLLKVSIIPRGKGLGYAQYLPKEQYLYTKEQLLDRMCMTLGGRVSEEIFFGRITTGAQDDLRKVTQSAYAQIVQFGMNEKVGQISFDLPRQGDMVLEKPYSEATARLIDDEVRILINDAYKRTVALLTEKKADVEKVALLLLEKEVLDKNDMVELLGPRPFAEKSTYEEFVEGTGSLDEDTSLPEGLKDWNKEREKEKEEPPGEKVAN
UniProt O00429: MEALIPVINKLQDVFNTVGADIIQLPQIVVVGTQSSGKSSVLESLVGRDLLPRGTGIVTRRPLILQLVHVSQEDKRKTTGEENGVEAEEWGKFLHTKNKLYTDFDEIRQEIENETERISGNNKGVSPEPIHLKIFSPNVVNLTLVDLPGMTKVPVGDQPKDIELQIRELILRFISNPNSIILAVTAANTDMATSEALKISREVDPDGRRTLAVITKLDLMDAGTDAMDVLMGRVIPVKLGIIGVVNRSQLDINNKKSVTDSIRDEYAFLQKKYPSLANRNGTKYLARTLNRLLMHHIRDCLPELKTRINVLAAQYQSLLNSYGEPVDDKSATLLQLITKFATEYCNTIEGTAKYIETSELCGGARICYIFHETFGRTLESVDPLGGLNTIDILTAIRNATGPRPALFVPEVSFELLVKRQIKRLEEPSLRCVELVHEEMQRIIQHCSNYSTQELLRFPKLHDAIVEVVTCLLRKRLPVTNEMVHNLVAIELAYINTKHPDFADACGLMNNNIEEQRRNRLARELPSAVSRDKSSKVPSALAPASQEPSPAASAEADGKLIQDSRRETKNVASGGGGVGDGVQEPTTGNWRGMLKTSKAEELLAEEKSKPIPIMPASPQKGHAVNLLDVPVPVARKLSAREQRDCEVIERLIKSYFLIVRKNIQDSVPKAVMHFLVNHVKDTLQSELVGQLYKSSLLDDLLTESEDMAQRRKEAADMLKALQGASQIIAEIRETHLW
UniProt A4D1E9: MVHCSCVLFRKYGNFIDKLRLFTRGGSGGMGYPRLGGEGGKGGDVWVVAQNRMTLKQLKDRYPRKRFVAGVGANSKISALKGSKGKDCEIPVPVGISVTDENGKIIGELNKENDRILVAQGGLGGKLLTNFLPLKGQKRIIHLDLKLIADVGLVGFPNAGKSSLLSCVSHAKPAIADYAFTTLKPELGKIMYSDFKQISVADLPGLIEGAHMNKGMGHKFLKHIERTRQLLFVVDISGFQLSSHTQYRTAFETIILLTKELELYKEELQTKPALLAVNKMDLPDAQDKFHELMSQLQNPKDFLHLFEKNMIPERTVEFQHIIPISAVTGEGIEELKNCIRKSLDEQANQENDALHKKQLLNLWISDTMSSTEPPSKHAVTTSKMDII
UniProt O00165: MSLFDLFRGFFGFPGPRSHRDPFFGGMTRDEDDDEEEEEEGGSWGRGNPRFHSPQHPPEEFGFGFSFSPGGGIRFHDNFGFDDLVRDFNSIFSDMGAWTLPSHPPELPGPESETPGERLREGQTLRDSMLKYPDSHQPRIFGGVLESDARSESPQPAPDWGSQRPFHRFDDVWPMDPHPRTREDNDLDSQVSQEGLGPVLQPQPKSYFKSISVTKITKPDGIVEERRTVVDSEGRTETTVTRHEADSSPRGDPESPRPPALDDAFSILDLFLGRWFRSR
UniProt Q7Z434: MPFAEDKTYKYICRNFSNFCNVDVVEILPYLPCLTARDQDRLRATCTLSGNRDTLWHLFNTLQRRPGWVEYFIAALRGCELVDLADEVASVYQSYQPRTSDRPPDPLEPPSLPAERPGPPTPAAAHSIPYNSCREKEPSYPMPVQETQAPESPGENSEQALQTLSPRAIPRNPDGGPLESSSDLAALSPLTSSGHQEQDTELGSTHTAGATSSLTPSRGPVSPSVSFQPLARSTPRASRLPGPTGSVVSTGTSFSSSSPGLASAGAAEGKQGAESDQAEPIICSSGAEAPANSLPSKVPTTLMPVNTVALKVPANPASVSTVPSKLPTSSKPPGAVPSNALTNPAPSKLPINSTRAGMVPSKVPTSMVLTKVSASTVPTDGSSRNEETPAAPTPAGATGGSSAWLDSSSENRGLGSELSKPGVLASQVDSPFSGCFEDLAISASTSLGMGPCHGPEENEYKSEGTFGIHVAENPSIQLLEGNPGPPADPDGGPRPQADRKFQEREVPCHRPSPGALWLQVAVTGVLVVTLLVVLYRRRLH
UniProt P03891: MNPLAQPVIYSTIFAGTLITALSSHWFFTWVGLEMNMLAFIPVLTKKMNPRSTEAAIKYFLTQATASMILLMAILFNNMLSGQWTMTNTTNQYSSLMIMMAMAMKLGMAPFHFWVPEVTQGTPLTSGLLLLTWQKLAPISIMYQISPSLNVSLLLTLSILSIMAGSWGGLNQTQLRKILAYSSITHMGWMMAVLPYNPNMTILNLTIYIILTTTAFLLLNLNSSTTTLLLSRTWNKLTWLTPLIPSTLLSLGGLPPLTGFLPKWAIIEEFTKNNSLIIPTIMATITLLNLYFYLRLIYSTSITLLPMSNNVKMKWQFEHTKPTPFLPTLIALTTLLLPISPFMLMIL
UniProt Q9Y375, residues 25-327: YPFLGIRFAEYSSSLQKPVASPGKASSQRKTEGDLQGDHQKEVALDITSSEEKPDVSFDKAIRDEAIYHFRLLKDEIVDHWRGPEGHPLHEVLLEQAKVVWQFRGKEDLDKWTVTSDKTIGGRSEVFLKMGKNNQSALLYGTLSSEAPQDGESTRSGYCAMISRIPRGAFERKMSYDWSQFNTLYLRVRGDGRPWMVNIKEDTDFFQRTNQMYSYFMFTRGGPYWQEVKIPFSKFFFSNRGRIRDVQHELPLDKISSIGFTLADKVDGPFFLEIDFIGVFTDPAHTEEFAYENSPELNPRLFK
UniProt Q15118, residues 29-436: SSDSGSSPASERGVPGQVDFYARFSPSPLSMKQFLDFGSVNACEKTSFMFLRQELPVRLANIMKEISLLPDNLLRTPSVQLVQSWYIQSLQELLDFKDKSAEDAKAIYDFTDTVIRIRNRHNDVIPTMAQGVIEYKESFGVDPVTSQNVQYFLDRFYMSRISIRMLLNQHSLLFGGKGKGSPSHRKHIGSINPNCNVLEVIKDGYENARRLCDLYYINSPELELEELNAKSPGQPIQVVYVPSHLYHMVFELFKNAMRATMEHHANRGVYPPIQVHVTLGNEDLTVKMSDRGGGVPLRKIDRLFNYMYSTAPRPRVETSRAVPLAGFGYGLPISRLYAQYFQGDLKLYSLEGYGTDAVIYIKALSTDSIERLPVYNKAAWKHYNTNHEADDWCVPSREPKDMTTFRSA
UniProt P13861: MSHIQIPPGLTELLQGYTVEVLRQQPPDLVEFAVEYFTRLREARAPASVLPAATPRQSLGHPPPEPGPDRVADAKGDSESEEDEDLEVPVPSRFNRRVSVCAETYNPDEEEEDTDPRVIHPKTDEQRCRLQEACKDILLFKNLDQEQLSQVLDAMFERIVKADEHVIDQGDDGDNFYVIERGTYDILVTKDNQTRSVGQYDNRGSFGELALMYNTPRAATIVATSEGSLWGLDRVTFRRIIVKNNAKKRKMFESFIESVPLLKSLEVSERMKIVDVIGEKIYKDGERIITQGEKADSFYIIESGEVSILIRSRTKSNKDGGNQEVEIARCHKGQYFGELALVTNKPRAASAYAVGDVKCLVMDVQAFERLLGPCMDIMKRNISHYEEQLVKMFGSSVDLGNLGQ
UniProt P31323: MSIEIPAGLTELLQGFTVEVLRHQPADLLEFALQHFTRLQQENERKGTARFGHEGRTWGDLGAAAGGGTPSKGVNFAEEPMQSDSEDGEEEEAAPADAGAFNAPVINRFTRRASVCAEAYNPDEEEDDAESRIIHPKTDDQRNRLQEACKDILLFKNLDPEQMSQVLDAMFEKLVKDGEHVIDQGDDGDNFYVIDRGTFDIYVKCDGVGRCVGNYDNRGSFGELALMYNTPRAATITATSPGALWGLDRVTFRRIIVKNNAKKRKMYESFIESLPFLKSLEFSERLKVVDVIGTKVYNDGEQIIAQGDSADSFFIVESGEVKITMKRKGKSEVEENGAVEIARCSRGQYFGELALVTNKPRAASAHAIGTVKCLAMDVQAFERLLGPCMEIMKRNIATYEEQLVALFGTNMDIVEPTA

Experiment [2] has as its target T2, EXD2-iso1-BirA*-FLAG (human) (UniProt Q9NVH0).
T2 sequence: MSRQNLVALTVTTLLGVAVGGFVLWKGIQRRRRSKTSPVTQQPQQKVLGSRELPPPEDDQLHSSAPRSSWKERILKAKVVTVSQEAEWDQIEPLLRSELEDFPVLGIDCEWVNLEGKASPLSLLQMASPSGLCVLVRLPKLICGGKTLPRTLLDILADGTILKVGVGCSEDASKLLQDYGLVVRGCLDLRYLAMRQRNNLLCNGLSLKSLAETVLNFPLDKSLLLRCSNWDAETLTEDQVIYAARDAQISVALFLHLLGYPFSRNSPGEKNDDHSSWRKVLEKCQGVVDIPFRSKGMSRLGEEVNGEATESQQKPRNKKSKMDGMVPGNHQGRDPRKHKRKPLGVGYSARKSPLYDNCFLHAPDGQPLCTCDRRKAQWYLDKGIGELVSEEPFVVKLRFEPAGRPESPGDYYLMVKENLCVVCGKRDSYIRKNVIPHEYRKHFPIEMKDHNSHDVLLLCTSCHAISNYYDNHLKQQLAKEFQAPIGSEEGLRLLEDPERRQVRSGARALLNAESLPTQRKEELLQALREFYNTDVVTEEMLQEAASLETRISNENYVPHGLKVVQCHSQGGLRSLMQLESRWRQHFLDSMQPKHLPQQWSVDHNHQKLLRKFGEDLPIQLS

For experiment [3], the target named is T3, EXD2-M126A-BirA*-FLAG (human) (UniProt Q9NVH0).
T3 sequence: T2 sequence with M126A

The target of experiment [4] is DIABLO-BirA*-FLAG (human) (UniProt Q9NR28).
The target in another experiment is BirA*-FLAG-FKBP8 (human) (UniProt Q14318).
The target in experiment [5] is RHOT2 BirA*-FLAG bait (human) (UniProt Q8IXI1).
For a further experiment, the target named is T4, RMDN3-BirA*-FLAG (human) (UniProt Q96TC7).
T4 sequence: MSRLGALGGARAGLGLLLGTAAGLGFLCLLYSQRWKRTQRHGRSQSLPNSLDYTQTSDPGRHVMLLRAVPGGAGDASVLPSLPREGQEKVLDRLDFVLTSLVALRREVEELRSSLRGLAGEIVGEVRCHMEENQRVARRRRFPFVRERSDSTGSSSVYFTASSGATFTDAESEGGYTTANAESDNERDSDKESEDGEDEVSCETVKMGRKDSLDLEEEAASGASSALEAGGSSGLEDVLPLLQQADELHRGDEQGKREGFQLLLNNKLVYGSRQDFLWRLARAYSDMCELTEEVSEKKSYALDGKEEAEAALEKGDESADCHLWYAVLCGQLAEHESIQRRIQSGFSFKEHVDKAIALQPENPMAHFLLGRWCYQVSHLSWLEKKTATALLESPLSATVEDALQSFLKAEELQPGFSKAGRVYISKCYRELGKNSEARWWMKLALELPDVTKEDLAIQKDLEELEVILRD

Experiment [6] concerns the target T5, SLC25A46 BirA*-FLAG bait (human) (UniProt Q96AG3).
T5 sequence: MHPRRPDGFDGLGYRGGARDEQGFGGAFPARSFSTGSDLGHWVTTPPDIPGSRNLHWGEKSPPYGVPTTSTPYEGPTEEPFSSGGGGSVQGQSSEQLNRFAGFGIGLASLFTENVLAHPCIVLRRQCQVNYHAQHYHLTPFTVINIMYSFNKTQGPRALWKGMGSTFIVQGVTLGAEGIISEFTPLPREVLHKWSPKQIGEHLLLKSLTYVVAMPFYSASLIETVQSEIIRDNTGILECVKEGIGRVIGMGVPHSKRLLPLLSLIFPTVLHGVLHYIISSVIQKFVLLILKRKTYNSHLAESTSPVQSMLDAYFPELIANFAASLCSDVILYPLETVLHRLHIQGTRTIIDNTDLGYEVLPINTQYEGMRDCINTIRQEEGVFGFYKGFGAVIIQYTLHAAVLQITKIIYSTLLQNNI

Experiment [7] deals with T6, PTPN1 BirA*-FLAG bait (human) (UniProt P18031).
T6 sequence: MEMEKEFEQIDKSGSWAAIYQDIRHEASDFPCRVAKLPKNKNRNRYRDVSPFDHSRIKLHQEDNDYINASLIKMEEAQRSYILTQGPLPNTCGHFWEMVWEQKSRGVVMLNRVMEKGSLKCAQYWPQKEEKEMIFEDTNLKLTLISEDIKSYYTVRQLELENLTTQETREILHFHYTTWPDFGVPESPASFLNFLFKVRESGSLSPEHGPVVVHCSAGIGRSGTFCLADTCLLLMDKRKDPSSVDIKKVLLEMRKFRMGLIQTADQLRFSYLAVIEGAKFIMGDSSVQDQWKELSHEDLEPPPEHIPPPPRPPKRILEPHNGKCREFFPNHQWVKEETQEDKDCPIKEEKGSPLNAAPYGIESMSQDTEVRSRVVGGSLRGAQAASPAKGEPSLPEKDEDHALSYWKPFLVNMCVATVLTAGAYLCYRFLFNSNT

Experiment [8] has as its target T7, MTRF1L-BirA*-FLAG (human) (UniProt Q9UGC7).
T7 sequence: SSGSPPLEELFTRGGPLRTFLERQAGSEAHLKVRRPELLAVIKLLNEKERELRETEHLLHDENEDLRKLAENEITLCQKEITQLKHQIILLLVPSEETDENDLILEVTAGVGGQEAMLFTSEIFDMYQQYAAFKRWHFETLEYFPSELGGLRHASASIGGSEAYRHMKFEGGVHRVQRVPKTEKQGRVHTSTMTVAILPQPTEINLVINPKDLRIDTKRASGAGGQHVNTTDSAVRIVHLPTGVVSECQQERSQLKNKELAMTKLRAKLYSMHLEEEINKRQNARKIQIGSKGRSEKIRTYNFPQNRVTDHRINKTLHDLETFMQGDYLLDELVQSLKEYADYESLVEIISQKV

The target of experiment [9] is T8, BirA*-FLAG-SLC25A12 (human) (UniProt O75746).
T8 sequence: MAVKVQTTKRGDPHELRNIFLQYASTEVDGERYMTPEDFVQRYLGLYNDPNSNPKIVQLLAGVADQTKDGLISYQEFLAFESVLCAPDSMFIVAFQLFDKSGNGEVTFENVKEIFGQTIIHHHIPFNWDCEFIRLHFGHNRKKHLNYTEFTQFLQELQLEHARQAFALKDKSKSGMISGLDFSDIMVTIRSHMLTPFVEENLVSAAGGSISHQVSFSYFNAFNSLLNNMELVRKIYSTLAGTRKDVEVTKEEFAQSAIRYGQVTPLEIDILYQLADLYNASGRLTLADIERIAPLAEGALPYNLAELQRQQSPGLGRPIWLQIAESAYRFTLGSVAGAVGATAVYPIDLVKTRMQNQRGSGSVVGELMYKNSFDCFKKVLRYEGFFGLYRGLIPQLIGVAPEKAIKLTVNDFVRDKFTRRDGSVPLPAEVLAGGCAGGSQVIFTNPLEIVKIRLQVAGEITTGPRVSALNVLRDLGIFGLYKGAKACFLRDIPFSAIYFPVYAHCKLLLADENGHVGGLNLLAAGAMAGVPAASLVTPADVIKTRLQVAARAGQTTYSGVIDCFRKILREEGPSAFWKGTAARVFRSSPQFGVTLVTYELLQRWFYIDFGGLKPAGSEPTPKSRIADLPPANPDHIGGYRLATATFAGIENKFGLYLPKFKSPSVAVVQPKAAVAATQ

Another experiment concerns the target T9, ACAD9-BirA*-FLAG (human) (UniProt Q9H845).
T9 sequence: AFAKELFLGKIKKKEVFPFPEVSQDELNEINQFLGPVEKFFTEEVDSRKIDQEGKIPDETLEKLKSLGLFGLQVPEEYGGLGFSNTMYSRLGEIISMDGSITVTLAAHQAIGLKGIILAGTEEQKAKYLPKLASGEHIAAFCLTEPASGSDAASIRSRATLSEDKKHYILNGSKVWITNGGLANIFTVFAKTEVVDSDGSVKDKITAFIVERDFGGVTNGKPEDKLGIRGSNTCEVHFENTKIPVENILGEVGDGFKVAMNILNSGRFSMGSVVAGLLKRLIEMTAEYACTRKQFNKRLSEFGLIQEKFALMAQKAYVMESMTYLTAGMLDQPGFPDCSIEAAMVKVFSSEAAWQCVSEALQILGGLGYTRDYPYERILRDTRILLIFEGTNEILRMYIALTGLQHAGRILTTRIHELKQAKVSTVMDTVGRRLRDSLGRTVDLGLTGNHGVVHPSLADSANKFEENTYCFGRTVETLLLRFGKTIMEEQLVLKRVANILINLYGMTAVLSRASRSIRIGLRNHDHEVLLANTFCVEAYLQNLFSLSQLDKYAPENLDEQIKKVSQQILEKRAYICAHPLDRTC

Positions count from the first letter of the chain named. Results are given in words; binding and its absence hold for the method and conditions named. Binding seen in cells or lysates may run through a third protein. Here binding means that the protein was enriched with, or labelled near, the bait; the list need not be complete. For some assays here: Where a sequence is shown, tags or fusion partners need not be part of it.

On to AFG3L2 (from UniProt Q9Y4W6 67-797), for which the binding entry in [1], in experiment [2] and in [3] was “binds” each time.
With BIRC6 (from UniProt Q9NR09 1-4857), the binding entry in [4] was “binds”.
On to DNM1L (from UniProt O00429 1-736), for which the binding entry (in the experiment with BirA*-FLAG-FKBP8 (human); in experiment [5]; with RMDN3-BirA*-FLAG (human); in experiment [6]; in experiment [7]) was “binds” in each case.
On to GTPBP10 (from UniProt A4D1E9 1-387), for which the binding result in experiment [8] is given as “binds”.
As to HAX1 (from UniProt O00165 1-279), the binding entry in experiment [9] is “binds”.
Turning to MAVS (from UniProt Q7Z434 1-540), the binding result (in the experiment with BirA*-FLAG-FKBP8 (human); in experiment [5]; in the experiment with RMDN3-BirA*-FLAG (human); in [6]; in experiment [7]) was “binds” each time.
As to ND2 protein (from UniProt P03891 1-347), in the experiment with ACAD9-BirA*-FLAG (human), the binding result is reported as “binds”.
For NDUFAF1 (from UniProt Q9Y375 25-327), the binding result in experiment [8] is given as “binds”.
PDK1 (from UniProt Q15118 29-436): the binding entry with ACAD9-BirA*-FLAG (human) is recorded as “binds”.
For the substance PRKAR2A (from UniProt P13861 1-404), the binding entry (with BirA*-FLAG-FKBP8 (human); in experiment [5]; with RMDN3-BirA*-FLAG (human); in [6]; in experiment [7]) was “binds” in each case.
As to PRKAR2B (from UniProt P31323 1-418), the binding entry (with BirA*-FLAG-FKBP8 (human); in experiment [5]; in the experiment with RMDN3-BirA*-FLAG (human); in [6]; in [7]) was “binds” each time.

Values taken from publication doi:10.1101/2020.04.01.020479.
